{
  "sequences": {"note": "Amino acid sequences for entries named in this document (tags omitted). A change or cut given only in a name is not applied to a line headed by its entry.", "UniProt P18054": "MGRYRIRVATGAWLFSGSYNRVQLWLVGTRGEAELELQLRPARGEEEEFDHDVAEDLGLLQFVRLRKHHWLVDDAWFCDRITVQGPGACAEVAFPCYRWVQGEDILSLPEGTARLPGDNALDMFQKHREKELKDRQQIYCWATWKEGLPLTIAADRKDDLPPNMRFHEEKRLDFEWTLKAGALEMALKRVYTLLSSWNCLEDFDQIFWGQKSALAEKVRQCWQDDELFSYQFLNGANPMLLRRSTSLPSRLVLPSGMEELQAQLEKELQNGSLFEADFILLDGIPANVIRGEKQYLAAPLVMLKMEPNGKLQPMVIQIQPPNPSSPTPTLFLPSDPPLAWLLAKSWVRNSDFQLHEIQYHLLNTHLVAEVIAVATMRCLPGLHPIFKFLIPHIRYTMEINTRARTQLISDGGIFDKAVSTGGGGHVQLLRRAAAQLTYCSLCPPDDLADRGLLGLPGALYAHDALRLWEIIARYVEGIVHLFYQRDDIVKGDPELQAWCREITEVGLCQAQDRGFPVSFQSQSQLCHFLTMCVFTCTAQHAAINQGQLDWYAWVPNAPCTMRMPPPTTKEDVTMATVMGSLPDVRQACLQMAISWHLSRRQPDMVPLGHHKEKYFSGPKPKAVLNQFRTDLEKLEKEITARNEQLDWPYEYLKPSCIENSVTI"},
  "source": "PubChem BioAssay AID1671190",
  "about": "(National Center for Advancing Translational Sciences (NCATS), 2021)",
  "note": "Values joined by “and” are separate entries in the source; they are usually repeats but may differ in a detail not shown here. Identical values can stand only once. In all, about 580,000 compounds went through this assay and about 6,100 (1.1%) were called active. This list was built around the results that the source calls inconclusive (neither active nor inactive); the mix of calls is not that of the screen. Calls come from the whole dose curve; as a rule, active = well fitted inhibition curve with a large enough effect; inconclusive = small, poorly fitted or top-dose-only effect, or another doubt; inactive = no such curve, though single readings can be large or run the other way. Where the call is inconclusive, the potency comes from a doubtful curve fit. Potency is the fitted concentration of half-maximal effect.",
  "data": [
    {"target": "Polyunsaturated fatty acid lipoxygenase ALOX12 (Homo sapiens) (UniProt P18054)", "assay": "Primary qHTS assay for inhibitors of human arachidonate 12S-lipoxygenase (ALOX12): Round 2", "settings": "purified 12hLO, xylenol orange hydroperoxide absorbance; series mostly up to 108 µM", "procedure,_shortened": "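Hydroperoxide product was detected by ferrous iron/xylenol orange as the 573 to 405 nm absorbance ratio. Arachidonic acid at 40 uM (final) was turned over for 30 min at room temperature by 150 nM human 12hLO, pH 7.0 Hepes buffer, after 15 min compound preincubation.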", "values": [
      {"smiles": "CCN(CC)CCN(C(=O)CCS(=O)(=O)c1ccccc1)c1nc2c(C)cc(C)cc2s1", "Potency": "inactive"},
      {"smiles": "CC(C)n1nc(C(=O)OC/C(O)=C(\\C#N)c2nc3ccccc3[nH]2)c2ccccc2c1=O", "Potency": "inactive"},
      {"smiles": "Cc1ccc(S(=O)(=O)N2CCC(C(=O)N3CCC(C(=O)NCc4cccnc4)CC3)CC2)cc1", "Potency": "inconclusive: 0.398 µM [inhibitor, full curve]"},
      {"smiles": "CCN(CC)C(=O)c1sc2[nH]c(=S)n(-c3ccccc3)c(=O)c2c1C", "Potency": "inconclusive: 44.7 µM [inhibitor, partial curve, poor fit]"},
      {"smiles": "Cc1cc(C(=O)CN2CCN(c3ccc(O)cc3)CC2)c(C)n1C1CCS(=O)(=O)C1", "note": "(stereo not drawn)", "Potency": "inconclusive: 35.5 µM [inhibitor, single point]"},
      {"smiles": "Cc1ccc(NC(=O)Nc2ccccc2)c(Br)c1", "Potency": "inconclusive: 1.41 µM [inhibitor, full curve]"},
      {"smiles": "O=C(C(c1ccccc1)c1ccccc1)N1CCN(C/C=C/c2ccccc2)CC1", "Potency": "inactive"},
      {"smiles": "Cn1c(SCc2n[nH]c(=S)n2-c2ccccc2)nnc1-c1ccccc1", "Potency": "inactive"},
      {"smiles": "O=C(c1ccc2c(c1)OCO2)N1CCC(Cc2nc(-c3ccc(F)cc3)no2)CC1", "Potency": "inactive"},
      {"smiles": "COc1ccc(-c2nnc(SC(C)C(=O)Nc3cccc(Cl)c3)o2)cc1", "note": "(stereo not drawn)", "Potency": "inactive"},
      {"smiles": "NCCCn1c(C(=O)c2cc(Cl)c(N)c(Cl)c2)c2ccc([N+](=O)[O-])cc2[n+]1[O-]", "Potency": "inactive"},
      {"smiles": "COc1cc([N+](=O)[O-])cc(/C=N/NC(=O)c2ccc(C)nc2)c1O", "Potency": "inconclusive: 39.8 µM [inhibitor, partial curve, poor fit]"},
      {"smiles": "COc1ccc(CC(=O)NC2CC(=O)N(c3cccc(F)c3)C2)cc1", "note": "(stereo not drawn)", "Potency": "inconclusive: 158 µM [inhibitor, partial curve, poor fit]"},
      {"smiles": "CN(C)c1ccc(-c2nc3cnccn3c2NC2CCCC2)cc1", "Potency": "inconclusive: 44.7 µM [inhibitor, partial curve, poor fit]"},
      {"smiles": "Cc1ccc(CNC(=O)C2CCCN(S(=O)(=O)c3ccc(-n4cnnn4)cc3)C2)cc1", "note": "(stereo not drawn)", "Potency": "inconclusive: 31.6 µM [inhibitor, partial curve, poor fit]"},
      {"smiles": "Cc1nn(-c2ccccc2)nc1C(=O)Oc1cc(C(F)(F)F)nn1-c1ccccc1", "Potency": "inconclusive: 35.5 µM [inhibitor, single point]"},
      {"smiles": "COC(=O)c1c(C)[nH]c(C(=O)OC(C)c2nnc(-c3ccccc3)o2)c1C", "note": "(stereo not drawn)", "Potency": "inactive"},
      {"smiles": "CCN(c1ccccc1)C(CNS(=O)(=O)c1ccccc1)c1ccccc1", "note": "(stereo not drawn)", "Potency": "inconclusive: 126 µM [inhibitor, partial curve, poor fit]"},
      {"smiles": "CCN(CC)/C(C)=N/C(=S)Nc1ccccc1", "Potency": "inconclusive: 39.8 µM [inhibitor, partial curve, poor fit]"},
      {"smiles": "Cc1cc(C)n(-c2nc3c(c(=O)n(CCc4ccccc4)c(=O)n3C)n2C(C)C)n1", "Potency": "inconclusive: 25.1 µM [inhibitor, single point]"},
      {"smiles": "Cc1ccc(O)c(N=Nc2nccs2)c1", "Potency": "inactive"},
      {"smiles": "Cc1c(C(=O)N(Cc2ccc(N(C)C)cc2)C2CCS(=O)(=O)C2)oc2ccccc12", "note": "(stereo not drawn)", "Potency": "inconclusive: 112 µM [inhibitor, single point]"},
      {"smiles": "COC(=O)c1cc(OC(=O)/C=C/c2ccc3ccccc3n2)cc(C(=O)OC)c1", "Potency": "inconclusive: 31.6 µM [inhibitor, partial curve, poor fit]"},
      {"smiles": "NC(=O)c1cccc2c1-c1ccccc1/C2=N/NC(N)=S", "Potency": "inconclusive: 44.7 µM [inhibitor, partial curve, poor fit]"},
      {"smiles": "Clc1ccc(OCCOCCN2CCc3ccccc3C2)c(Cl)c1", "Potency": "inconclusive: 79.4 µM [inhibitor, single point]"},
      {"smiles": "O=C(NC(=S)Nc1ccccc1F)c1ccc(Br)o1", "Potency": "inactive"},
      {"smiles": "O=c1[nH]c(=O)n(CCc2ccccc2)c2nccc(-c3ccccc3Cl)c12", "Potency": "inconclusive: 2.24 µM [inhibitor, full curve, poor fit]"},
      {"smiles": "CCc1c(C)sc(NC(=O)c2cccs2)c1C#N", "Potency": "inconclusive: 50.1 µM [inhibitor, partial curve, poor fit]"},
      {"smiles": "O=c1c2cnc3nc(-c4ccncc4)nn3c2ccn1CCN1CCCCC1", "Potency": "inactive"},
      {"smiles": "Cc1cccc(C)c1-n1nnnc1-c1nc2cc(Br)ccc2[nH]c1=O", "Potency": "inconclusive: 5.01 µM [inhibitor, full curve, poor fit]"},
      {"smiles": "COc1ccc(/C=C/C(=O)c2ccc3ccccc3c2OC(F)F)cc1", "Potency": "inconclusive: 11.2 µM [inhibitor, partial curve, poor fit]"},
      {"smiles": "Cc1ccccc1-c1nc(CS(=O)CC(=O)N2CCN(c3cc(Cl)ccc3C)CC2)c(C)o1", "note": "(stereo not drawn)", "Potency": "inconclusive: 100 µM [inhibitor, single point]"},
      {"smiles": "CCc1ccc(Nc2ncnc3c2cnn3-c2cccc(C)c2)cc1", "Potency": "inconclusive: 6.31 µM [inhibitor, partial curve, poor fit]"},
      {"smiles": "COc1cccc(NC(=O)CC(=O)c2ccccc2)c1", "Potency": "inconclusive: 158 µM [inhibitor, single point]"},
      {"smiles": "Cn1c(=O)c(-c2cccc(F)c2)nc2cncnc21", "Potency": "inactive"},
      {"smiles": "CC(C)N=C1NN=C(c2cccs2)CS1", "Potency": "inactive"},
      {"smiles": "CC(=O)Nc1ccc(NC(=O)C2CCCCC2)cc1", "Potency": "inactive"},
      {"smiles": "O=C(NNC(=S)Nc1cccc(C(F)(F)F)c1)c1ccccc1Cl", "Potency": "inconclusive: 44.7 µM [inhibitor, partial curve, poor fit]"},
      {"smiles": "CCOc1cccc(=O)c2c(C)n(C)c(C)c12", "Potency": "inconclusive: 44.7 µM [inhibitor, partial curve, poor fit]"},
      {"smiles": "CC(C)(C)c1ccc(S(=O)(=O)N(CCCN2CCOCC2)Cc2cccs2)cc1", "Potency": "inconclusive: 31.6 µM [inhibitor, partial curve, poor fit] and inconclusive: 11.2 µM [inhibitor, partial curve, poor fit]"},
      {"smiles": "CC(O)CNC(=O)Nc1sc2c(c1C#N)CC(C)(C)OC2", "note": "(stereo not drawn)", "Potency": "inconclusive: 5.01 µM [inhibitor, full curve, poor fit]"},
      {"smiles": "O=C(O)c1cc(N2CCCCC2)nc2ccccc12", "Potency": "inactive"},
      {"smiles": "CCN(CC)c1ccc(NS(=O)(=O)c2ccc(C3CCCCC3)cc2)cc1C(=O)O", "Potency": "inconclusive: 31.6 µM [inhibitor, partial curve, poor fit]"}
    ]}
  ]
}
